Measurements as given in PubChem BioAssay AID504467 (National Center for Advancing Translational Sciences (NCATS), 2011).
The whole screen tested about 330,000 compounds, of which about 7,700 (2.3%) were called active. Inconclusive means that the source gave no clear call. Such entries were picked first, then a sample of the others. Calls follow the shape of the dose curve; as a rule, active = well fitted inhibition curve with a large enough effect; inconclusive = small, poorly fitted or top-dose-only effect, or effect the other way; inactive = flat fitted curve, though single readings scatter. Where the call is inconclusive, the potency comes from a doubtful curve fit.
% is scaled to controls: 0 for no effect and ±100 for the full control effect; potency is read from the fitted curve at half-maximal effect.

Assay: qHTS screen for small molecules that inhibit ELG1-dependent DNA repair in human embryonic kidney (HEK293T) cells expressing luciferase-tagged ELG1; also: nearly all actives have a fitted effect of over 55% in size
Conditions: HEK293T ELG1-luciferase reporter, luminescence, 16 h, DNA damage induced by 5-fluorouridine; activity change, negative = inhibition: at 46.1 µM (top of the series)
Method in brief: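 Step one: seed 2,000 cells per well. Step two: pin-transfer compound or DMSO alongside 5-fluorouridine. Step three: incubate 16 hr, 37 °C, 5% CO2. Step four: add ONE-Glo, wait 30 min, read luminescence.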
For `CCOc1cccc(CNc2ccc(O)cc2)c1OCc1ccccc1Cl`, the Potency was active: 18.4 µM. In the case of `CN1CCN(c2ccc([N+](=O)[O-])cc2/C=N/NC(=O)c2ccc(F)cc2)CC1`, the Potency is reported as inconclusive: 9.2 µM [inhibitor, partial curve, poor fit]. For `Cc1cc(C)cc(NC(=O)c2cccc(NC3=NC4CS(=O)(=O)CC4S3)c2)c1` (stereo not drawn), the Potency was inconclusive: 16.4 µM [activator, partial curve, poor fit]. For `CNC(=S)Nc1cc(OC)ccc1OC`, the “activity change, negative = inhibition” value was inactive: -0.24%. In the case of `CCCc1nc2ccccc2c(=O)n1/N=C/c1c(C)[nH]n(-c2ccc(C)cc2)c1=O`, the Potency is reported as inconclusive: 7.08 µM [inhibitor, full curve]. For `CC1CCC(C(C)C)C(OC(=O)C[n+]2cc(-c3ccc(Cl)cc3)n3c2CCC3)C1` (stereo not drawn), the Potency was inconclusive: 23.1 µM [inhibitor, partial curve, poor fit]. With `O=C(CSc1ccccc1F)NCC1(N2CCCCC2)CCCCC1` the Potency was inconclusive: 29.1 µM [activator, partial curve, poor fit]. For `Cc1ccc(-c2nc(-c3cccnc3)sc2CC(=O)Nc2ccc(C)c(Cl)c2)cc1`, the Potency was active: 16.4 µM. For `COc1cc(CCCN2CCNC[C@@H]2C(C)O)cc(OC)c1OC` (stereo partly drawn), the Potency was inconclusive: 2.82 µM [activator, single point]. For `C=CCn1c(O)c(C(CC)=NCCN2CCOCC2)c(=O)[nH]c1=O`, the “activity change, negative = inhibition” value was inactive: 5.04%. In the case of `COc1cc(Cl)c(CN2CCC(CCC(=O)NC3CC3)CC2)cc1OC`, the “activity change, negative = inhibition” value is reported as inactive: -11%. With `O=C(N/N=C/c1cc([N+](=O)[O-])ccc1O)c1ccncc1` the Potency was inconclusive: 29.1 µM [inhibitor, single point]. With `CC(=O)Nc1ccc(/C(C)=N/Nc2nc(N3CCOCC3)nc(N3CCOCC3)n2)cc1` the Potency was inconclusive: 25.9 µM [inhibitor, partial curve]. With `COc1ccc(NC(=O)c2cc(C3CC3)nc3c2cnn3C(C)C)cc1OC` the Potency was inconclusive: 8.91 µM [inhibitor, partial curve, poor fit]. In the case of `Cc1ccc(NC(=O)C2CCCN(S(=O)(=O)c3c(C)noc3C)C2)cc1F` (stereo not drawn), the Potency is reported as inconclusive: 29.1 µM [inhibitor, single point]. With `CC(=O)Nc1cccc(NC(=O)/C=C/c2ccc(S(=O)(=O)N3CCOCC3)cc2)c1` the Potency was inconclusive: 16.4 µM [inhibitor, partial curve, poor fit]. With `CCCCn1c(-c2cccc(Br)c2)nc2cc3[nH]c(=O)c(C(C)C)nc3cc21` the Potency was inconclusive: 4.11 µM [inhibitor, single point]. In the case of `Cc1nn(C2CCS(=O)(=O)C2)c(Cl)c1/C=C/C(=O)OCC(=O)Nc1ccccc1[N+](=O)[O-]` (stereo not drawn), the Potency is reported as inconclusive: 20.6 µM [inhibitor, single point]. In the case of `COC(=O)c1cc(Br)c(=O)n(-c2nccs2)c1`, the “activity change, negative = inhibition” value is reported as inactive: 1.63%. In the case of `COc1ccc(-c2csc(NC(=O)c3ccccc3S(C)(=O)=O)n2)cc1`, the Potency is reported as inconclusive: 29.1 µM [inhibitor, partial curve, poor fit]. For `Cc1ccc(C(=O)OCC(=O)NCc2ccco2)cc1C`, the activity change, negative = inhibition was inconclusive: 1.5% [activator]. In the case of `CCSc1nc(C)cc(Oc2ccc(=O)n(C)n2)n1`, the Potency is reported as inconclusive: 7.31 µM [activator, partial curve]. For `Cc1cc(C(=O)CSc2nnc(C3CC3)n2C2CC2)c(C)n1C(C)C`, the Potency was inconclusive: 29.1 µM [activator, single point]. For `COc1ccc2nc3ccccc3nc2c1NC(=O)c1ccc(Cl)cc1`, the Potency was inconclusive: 29.1 µM [activator, single point]. With `O=C(Cn1cnc2c(nnn2Cc2ccccc2F)c1=O)N1CCN(c2ccccc2)CC1` the Potency was inconclusive: 32.6 µM [inhibitor, partial curve, poor fit]. With `COc1ccc2cc(CN(CC3CCCO3)C(=S)NCc3ccco3)c(=O)[nH]c2c1` (stereo not drawn) the Potency was inconclusive: 16.4 µM [inhibitor, partial curve]. In the case of `N#C/C(=C\c1ccc(Cl)cc1)c1nc(-c2ccco2)cs1`, the Potency is reported as inconclusive: 16.4 µM [activator, single point]. With `CCN(Cc1ccc(OC)c(F)c1)C(=O)CCl` the Potency was inconclusive: 20.6 µM [inhibitor, single point]. In the case of `O=C(Nc1ccc(F)cc1F)NC1CCN(S(=O)(=O)c2ccc(F)cc2)CC1`, the “activity change, negative = inhibition” value is reported as inactive: 4.28%. With `COc1ccccc1/C=C/C(=O)OCC(=O)N1CCCCC1` the Potency was inconclusive: 18.3 µM [activator, single point]. In the case of `O=C(Nc1ccc(S(=O)(=O)N2CCCC2)cc1)c1cccnc1Cl`, the “activity change, negative = inhibition” value is reported as inactive: 0%. With `O=C(NCc1ccccn1)c1ccc(Cn2cc(C(F)(F)F)ccc2=O)cc1` the “activity change, negative = inhibition” value was inactive: -0.612%. In the case of `CN(C)c1ccc(C(=O)c2ccc(O)cc2O)cc1`, the Potency is reported as inconclusive: 14.6 µM [activator, partial curve]. With `COc1ccccc1N1CCN(CC(=O)Nc2ccnn2C2CCCC2)CC1` the Potency was inconclusive: 16.4 µM [inhibitor, partial curve, poor fit]. With `CCN(Cc1ccccc1)C(c1cccc(C#N)c1)c1nnnn1C(C)(C)C` (stereo not drawn) the Potency was inconclusive: 4.11 µM [activator, single point]. For `O=C(Nc1cccc(F)c1)c1ccc2c(c1)OCCO2`, the Potency was inconclusive: 5.17 µM [activator, partial curve]. In the case of `O=C(CSc1nc2ccccc2s1)N1N=C(c2cccs2)CC1c1ccc(F)cc1` (stereo not drawn), the “activity change, negative = inhibition” value is reported as inactive: -1.3%. For `COc1ccccc1OCC(=O)O/N=C(\N)c1ccccn1`, the Potency was inconclusive: 9.2 µM [activator, partial curve]. In the case of `NC(=O)c1ccc(NC(=O)CSc2nnc(-c3cccnc3)n2Cc2ccco2)cc1`, the “activity change, negative = inhibition” value is reported as inactive: 3.89%. In the case of `N#Cc1cc2cc3c(cc2nc1SCC(=O)N1CCCC1)OCCO3`, the Potency is reported as inconclusive: 2.91 µM [activator, partial curve]. For `CN(Cc1nc2ccccc2c(=O)[nH]1)C(=O)c1cc(C2CC2)nn1-c1ccccc1`, the Potency was inconclusive: 16.4 µM [inhibitor, single point]. For `CCCOc1ccc(C2c3c(oc4cc(C)c(C)cc4c3=O)C(=O)N2CCCN(C)C)cc1` (stereo not drawn), the “activity change, negative = inhibition” value was inactive: 1.8%. In the case of `COn1c(-c2ccc(Cl)cc2)nc2ccc(Cl)cc21`, the Potency is reported as inconclusive: 23.1 µM [activator, partial curve, poor fit].
